# Some of the results follow.
# Amino acid sequences for entries named in this document (tags omitted). A change or cut given only in a name is not applied to a line headed by its entry.
# UniProt O95352: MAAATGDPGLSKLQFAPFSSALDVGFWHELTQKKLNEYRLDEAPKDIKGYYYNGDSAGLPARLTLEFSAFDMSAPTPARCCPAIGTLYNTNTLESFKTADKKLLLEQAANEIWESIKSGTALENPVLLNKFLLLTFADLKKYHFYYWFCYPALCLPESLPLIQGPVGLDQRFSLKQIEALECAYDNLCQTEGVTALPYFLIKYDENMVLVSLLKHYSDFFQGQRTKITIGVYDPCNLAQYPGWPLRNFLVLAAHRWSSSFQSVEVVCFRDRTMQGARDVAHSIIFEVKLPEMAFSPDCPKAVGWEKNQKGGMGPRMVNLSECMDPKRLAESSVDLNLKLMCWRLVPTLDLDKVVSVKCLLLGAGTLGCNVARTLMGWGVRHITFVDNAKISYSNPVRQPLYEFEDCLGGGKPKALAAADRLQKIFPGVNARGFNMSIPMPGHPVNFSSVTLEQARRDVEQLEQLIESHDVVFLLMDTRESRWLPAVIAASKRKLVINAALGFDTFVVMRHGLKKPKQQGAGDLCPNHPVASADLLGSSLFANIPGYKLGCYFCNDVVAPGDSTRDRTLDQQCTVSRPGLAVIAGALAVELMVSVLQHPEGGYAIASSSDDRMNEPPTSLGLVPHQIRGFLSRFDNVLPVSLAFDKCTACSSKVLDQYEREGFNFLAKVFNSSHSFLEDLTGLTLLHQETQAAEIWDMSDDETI
# UniProt Q6ICH7: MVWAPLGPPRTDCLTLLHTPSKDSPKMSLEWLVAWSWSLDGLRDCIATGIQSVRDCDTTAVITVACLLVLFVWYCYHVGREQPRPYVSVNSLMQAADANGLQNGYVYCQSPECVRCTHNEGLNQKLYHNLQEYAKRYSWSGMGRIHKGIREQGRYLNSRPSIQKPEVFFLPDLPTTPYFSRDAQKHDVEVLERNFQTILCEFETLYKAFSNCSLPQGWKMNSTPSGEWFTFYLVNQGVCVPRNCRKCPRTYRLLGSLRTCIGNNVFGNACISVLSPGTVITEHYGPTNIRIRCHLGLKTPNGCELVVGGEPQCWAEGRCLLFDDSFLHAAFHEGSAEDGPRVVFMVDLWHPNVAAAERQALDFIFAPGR
# UniProt Q6PL18: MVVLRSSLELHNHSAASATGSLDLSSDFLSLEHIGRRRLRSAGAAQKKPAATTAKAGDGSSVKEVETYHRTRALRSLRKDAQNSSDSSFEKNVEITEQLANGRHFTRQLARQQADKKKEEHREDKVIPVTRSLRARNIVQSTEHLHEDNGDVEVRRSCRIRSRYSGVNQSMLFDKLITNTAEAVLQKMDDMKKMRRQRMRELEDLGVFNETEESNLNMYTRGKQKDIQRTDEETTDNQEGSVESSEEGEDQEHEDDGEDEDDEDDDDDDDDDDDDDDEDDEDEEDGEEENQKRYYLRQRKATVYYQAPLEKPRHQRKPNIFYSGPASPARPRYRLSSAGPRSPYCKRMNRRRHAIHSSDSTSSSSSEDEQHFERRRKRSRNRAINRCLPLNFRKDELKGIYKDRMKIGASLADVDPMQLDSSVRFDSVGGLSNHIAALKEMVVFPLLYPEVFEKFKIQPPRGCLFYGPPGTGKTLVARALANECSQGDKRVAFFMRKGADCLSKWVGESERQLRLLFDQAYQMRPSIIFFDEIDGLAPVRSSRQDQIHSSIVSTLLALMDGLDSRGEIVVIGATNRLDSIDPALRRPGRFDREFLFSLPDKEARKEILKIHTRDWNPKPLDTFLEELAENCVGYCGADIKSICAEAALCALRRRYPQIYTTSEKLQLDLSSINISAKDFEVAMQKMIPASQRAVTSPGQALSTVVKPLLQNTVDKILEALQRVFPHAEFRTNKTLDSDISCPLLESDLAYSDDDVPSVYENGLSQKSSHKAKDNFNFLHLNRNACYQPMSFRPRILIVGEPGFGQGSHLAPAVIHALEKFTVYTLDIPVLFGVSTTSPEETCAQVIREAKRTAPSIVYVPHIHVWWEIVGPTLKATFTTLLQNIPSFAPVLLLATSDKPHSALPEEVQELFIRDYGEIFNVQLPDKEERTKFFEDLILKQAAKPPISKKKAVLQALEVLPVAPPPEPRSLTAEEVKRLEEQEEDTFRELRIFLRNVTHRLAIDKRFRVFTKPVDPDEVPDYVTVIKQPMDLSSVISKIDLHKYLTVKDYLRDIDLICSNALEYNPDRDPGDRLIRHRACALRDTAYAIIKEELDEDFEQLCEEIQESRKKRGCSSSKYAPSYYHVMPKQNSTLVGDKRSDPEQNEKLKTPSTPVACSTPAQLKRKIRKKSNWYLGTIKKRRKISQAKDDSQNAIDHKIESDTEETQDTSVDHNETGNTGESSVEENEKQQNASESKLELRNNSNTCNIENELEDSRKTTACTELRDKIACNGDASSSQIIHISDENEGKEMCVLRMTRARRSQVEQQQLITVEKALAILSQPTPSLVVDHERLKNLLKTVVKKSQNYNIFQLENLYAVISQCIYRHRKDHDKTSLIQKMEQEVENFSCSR
# UniProt P23634: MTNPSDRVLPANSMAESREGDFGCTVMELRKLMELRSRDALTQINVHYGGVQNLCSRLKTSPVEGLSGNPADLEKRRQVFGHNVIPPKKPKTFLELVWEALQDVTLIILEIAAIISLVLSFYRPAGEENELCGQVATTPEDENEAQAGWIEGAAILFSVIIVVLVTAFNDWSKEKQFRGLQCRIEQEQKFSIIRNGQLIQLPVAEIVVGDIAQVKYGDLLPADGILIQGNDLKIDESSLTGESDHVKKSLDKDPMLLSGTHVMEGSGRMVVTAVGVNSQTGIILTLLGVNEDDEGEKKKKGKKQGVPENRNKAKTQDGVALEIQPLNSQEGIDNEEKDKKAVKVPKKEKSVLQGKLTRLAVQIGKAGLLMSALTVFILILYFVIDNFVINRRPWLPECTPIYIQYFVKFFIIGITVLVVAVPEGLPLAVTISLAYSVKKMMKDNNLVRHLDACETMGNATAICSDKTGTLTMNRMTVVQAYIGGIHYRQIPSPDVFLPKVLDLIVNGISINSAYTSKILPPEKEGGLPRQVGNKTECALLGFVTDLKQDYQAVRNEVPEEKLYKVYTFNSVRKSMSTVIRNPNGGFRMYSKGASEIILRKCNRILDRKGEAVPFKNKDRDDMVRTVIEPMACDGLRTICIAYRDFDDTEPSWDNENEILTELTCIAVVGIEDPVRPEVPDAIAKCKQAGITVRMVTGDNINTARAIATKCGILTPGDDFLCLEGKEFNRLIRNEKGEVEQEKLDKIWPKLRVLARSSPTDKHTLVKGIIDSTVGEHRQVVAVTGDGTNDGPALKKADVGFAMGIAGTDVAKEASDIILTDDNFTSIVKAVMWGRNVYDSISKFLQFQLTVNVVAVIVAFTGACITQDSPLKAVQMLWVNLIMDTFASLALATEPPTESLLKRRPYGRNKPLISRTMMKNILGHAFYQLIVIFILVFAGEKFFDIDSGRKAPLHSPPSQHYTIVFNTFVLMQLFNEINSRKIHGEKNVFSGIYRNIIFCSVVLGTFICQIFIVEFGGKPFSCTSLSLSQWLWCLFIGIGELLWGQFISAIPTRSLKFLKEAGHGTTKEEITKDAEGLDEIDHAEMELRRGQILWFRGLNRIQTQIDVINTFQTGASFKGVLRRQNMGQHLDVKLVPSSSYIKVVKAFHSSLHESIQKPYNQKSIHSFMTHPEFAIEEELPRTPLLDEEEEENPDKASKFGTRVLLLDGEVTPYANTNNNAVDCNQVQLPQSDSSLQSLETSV
# UniProt P15336: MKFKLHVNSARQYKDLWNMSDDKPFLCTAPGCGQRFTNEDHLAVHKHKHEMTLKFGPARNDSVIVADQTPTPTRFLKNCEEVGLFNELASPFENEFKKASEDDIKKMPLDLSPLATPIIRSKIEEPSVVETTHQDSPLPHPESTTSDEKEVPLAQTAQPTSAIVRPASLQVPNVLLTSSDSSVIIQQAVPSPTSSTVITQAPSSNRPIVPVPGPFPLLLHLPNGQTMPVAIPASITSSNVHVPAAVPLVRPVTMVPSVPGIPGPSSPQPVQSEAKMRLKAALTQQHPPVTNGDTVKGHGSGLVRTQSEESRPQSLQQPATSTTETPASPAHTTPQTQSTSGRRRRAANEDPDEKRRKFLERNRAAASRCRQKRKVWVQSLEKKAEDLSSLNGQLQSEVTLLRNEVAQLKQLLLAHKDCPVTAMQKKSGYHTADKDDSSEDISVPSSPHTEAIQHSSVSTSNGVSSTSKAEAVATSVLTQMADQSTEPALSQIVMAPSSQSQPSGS
# UniProt Q9ULI0: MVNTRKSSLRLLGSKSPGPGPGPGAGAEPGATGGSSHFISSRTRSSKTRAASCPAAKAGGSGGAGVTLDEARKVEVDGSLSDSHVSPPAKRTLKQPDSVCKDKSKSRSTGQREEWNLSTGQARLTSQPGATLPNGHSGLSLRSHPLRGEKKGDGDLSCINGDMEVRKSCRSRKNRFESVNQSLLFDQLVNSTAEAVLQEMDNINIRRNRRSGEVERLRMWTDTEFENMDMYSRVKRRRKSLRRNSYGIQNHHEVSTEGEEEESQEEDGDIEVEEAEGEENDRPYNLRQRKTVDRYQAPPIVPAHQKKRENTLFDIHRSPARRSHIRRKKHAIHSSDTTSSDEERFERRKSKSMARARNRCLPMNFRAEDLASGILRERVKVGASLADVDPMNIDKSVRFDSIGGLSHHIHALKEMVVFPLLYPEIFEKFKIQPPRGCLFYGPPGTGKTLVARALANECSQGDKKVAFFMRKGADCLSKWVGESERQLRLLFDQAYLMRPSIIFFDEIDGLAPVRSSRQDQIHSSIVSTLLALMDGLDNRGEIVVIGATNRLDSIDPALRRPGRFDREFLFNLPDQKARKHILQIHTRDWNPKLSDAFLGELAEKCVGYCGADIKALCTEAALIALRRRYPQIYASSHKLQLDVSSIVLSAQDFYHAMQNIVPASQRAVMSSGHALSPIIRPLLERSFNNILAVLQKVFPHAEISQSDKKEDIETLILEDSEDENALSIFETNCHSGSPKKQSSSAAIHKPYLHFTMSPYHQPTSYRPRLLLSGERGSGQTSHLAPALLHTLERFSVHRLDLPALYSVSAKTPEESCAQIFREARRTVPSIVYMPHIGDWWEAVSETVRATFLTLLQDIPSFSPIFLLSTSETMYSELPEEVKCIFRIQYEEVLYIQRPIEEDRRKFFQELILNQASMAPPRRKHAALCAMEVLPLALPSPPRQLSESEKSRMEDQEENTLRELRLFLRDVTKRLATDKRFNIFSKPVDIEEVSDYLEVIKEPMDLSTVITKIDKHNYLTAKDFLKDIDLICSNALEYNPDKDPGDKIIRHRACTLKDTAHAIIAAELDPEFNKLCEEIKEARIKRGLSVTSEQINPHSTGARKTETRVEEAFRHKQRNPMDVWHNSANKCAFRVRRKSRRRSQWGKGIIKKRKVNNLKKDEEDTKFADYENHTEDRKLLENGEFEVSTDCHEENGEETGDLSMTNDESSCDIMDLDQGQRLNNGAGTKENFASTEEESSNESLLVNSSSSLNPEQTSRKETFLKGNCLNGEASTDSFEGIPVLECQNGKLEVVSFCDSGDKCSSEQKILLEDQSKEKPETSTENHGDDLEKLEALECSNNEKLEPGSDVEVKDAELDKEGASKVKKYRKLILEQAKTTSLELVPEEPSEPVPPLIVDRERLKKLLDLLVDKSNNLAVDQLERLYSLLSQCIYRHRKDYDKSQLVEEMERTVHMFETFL
# UniProt P31939: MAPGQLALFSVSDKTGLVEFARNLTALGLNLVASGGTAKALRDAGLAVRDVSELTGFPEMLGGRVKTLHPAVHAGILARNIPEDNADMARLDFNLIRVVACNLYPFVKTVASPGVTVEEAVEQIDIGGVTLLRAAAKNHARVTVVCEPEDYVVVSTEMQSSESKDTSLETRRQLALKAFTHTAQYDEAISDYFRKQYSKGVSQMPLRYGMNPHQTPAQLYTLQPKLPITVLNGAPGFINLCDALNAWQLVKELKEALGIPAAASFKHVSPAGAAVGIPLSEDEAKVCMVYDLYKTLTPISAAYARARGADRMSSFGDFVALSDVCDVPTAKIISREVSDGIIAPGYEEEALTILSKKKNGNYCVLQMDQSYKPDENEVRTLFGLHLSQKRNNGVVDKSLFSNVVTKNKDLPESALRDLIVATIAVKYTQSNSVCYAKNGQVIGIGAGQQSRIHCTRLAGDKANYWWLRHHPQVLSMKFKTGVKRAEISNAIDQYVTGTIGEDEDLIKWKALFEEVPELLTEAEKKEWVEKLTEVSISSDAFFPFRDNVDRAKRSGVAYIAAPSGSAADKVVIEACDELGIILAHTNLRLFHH
# Compound: CC1Cc2ccccc2N1C(=O)C1CCCN(C1)C(=O)CCl (mixture of isomers) [TRIM25 ligand 11 (diastereomer mixture)]
# Assay: probe-labelled cysteine peptide fold change vs DMSO (competition) (log2 fold change); higher = less target engagement (more negative = stronger competition)
# Conditions: THP-1, incubation time: 4 h
# 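Further: competitive chemoproteomic profiling in live THP-1 cells with an iodoacetamide desthiobiotin (IA-DTB) probe, comparing probe-labelled peptide intensities in compound-treated cells against DMSO-treated controls.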
Target,probe-labelled cysteine peptide fold change (10 µM),probe-labelled cysteine peptide fold change (50 µM)
ATG9A_Q7Z3C6_122_VTLPDAFLPAQVCSAR (UniProt Q7Z3C6),0.159,0.293
ATRX_P46100_1026_MEQQYESSSDGTEKLPEREEICHFPK (UniProt P46100),-0.145,-0.342
ATP6V1A_P38606_254_VLDALFPCVQGGTTAIPGAFGCGK (UniProt P38606),0.238,0.203
ATP1A1_P05023_374_NLEAVETLGSTSTICSDK (UniProt P05023),0.12,0.0529
ATG7_O95352_358_CLLLGAGTLGCNVAR (UniProt O95352),-0.0759,-0.0837
ASPHD2_Q6ICH7_200_NFQTILCEFETLYK (UniProt Q6ICH7),-0.104,-0.222
ATAD2_Q6PL18_1057_DIDLICSNALEYNPDRDPGDR (UniProt Q6PL18),0.101,-0.0131
ATP2B4_P23634_632_TVIEPMACDGLR (UniProt P23634),-0.1,-0.201
ATF2_P15336_79_NCEEVGLFNELASPFENEFK (UniProt P15336),-0.151,-0.39
ATM_Q13315_2753_KLTICTYK (UniProt Q13315),-0.16,-0.13
ATAD2B_Q9ULI0_816_TPEESCAQIFR (UniProt Q9ULI0),0.0176,-0.039
ATG4B_Q9Y4P1_333_TEDDFNDWCQQVK (UniProt Q9Y4P1),-0.223,-0.125
ASCC3_Q8N3C0_366_KAGEDLEVSEGLMCFDPK (UniProt Q8N3C0),-0.033,-0.248
ARRB1_P49407_251+269_CPVAMEEADDTVAPSSTFCK (UniProt P49407),-0.138,-0.118
ATP6V0D1_P61421_209_FCTLLGGTTADAMCPILEFEADRR (UniProt P61421),0.39,0.316
ATIC_P31939_146_VTVVCEPEDYVVVSTEMQSSESK (UniProt P31939),-0.0214,-0.177
ATIC_P31939_363_KKNGNYCVLQMDQSYKPDENEVR (UniProt P31939),0.0376,0.0796
ATP1B1_P05026_126_DSAQRDDMIFEDCGDVPSEPK (UniProt P05026),-0.147,-0.244
ASMTL_O95671_333_VDASACGMER (UniProt O95671),-0.0125,-0.111

# An excerpt of these results, tab-delimited:
Target	probe-labelled cysteine peptide fold change (10 µM)	probe-labelled cysteine peptide fold change (50 µM)
ATG7_O95352_358_CLLLGAGTLGCNVAR (UniProt O95352)	-0.0759	-0.0837
ASPHD2_Q6ICH7_200_NFQTILCEFETLYK (UniProt Q6ICH7)	-0.104	-0.222
ATAD2_Q6PL18_1057_DIDLICSNALEYNPDRDPGDR (UniProt Q6PL18)	0.101	-0.0131
ATP2B4_P23634_632_TVIEPMACDGLR (UniProt P23634)	-0.1	-0.201
